No constants are given. Whether binding was seen depends on the method and setting. Binding seen in cells or lysates may run through a third protein. Some entries that bind do so weakly or less than the wild type.
Tests used:
[1] = biological target: Fused in sarcoma (FUS) (human (endogenous in U-2 OS)) (UniProt P35637); test: co-IP
[2] = biological target: Fused in sarcoma (FUS) (human (endogenous in U-2 OS)) (UniProt P35637); test: proximity ligation
[3] = biological target: Fused in sarcoma (FUS) (human (endogenous in U-2 OS)) (UniProt P35637); test: co-IP; remark: listed apart in the source

By UniProt entry, the sequences of proteins in these tests, tags left out. Where a name states a change or a piece, a line headed by the entry shows the natural chain unless it says otherwise.
UniProt P35637: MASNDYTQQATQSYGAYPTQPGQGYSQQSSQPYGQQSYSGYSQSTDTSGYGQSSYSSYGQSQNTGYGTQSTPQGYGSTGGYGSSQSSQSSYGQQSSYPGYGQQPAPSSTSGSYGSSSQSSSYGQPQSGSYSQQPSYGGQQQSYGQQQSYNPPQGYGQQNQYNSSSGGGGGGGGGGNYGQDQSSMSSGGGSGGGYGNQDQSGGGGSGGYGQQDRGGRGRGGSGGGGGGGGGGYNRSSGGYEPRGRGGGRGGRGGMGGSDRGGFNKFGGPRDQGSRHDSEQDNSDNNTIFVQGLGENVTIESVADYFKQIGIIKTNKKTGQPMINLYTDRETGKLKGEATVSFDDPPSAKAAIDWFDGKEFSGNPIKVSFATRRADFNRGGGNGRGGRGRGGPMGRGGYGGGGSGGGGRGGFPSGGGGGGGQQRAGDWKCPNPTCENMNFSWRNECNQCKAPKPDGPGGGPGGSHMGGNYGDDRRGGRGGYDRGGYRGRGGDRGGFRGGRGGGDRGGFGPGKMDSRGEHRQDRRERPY
UniProt P28340: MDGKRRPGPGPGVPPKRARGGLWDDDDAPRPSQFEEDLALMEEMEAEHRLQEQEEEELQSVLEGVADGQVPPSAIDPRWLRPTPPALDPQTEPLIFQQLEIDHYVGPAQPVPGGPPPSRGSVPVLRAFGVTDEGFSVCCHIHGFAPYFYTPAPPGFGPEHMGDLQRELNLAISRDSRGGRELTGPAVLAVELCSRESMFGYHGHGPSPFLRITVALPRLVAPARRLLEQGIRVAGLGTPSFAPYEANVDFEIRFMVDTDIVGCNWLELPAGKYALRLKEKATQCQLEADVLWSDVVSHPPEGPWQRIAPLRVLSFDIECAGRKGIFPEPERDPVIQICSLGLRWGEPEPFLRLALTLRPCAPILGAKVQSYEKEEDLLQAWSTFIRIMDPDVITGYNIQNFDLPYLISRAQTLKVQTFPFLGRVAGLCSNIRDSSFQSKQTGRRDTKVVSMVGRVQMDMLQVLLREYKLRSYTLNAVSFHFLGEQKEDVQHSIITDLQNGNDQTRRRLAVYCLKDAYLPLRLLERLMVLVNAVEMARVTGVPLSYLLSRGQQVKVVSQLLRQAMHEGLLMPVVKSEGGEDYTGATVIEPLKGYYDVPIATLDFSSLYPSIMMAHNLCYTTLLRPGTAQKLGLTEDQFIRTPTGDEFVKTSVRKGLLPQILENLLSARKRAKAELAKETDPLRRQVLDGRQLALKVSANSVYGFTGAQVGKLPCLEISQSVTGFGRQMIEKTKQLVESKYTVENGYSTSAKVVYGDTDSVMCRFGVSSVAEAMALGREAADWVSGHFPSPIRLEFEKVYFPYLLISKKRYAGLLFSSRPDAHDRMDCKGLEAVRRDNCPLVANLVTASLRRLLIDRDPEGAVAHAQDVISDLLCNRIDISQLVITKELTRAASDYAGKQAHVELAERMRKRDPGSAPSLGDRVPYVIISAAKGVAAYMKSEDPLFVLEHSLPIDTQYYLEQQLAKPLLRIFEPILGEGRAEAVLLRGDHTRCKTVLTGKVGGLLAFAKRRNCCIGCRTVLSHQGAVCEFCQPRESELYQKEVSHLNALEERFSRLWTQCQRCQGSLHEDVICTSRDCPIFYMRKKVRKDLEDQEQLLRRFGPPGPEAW
UniProt P12004: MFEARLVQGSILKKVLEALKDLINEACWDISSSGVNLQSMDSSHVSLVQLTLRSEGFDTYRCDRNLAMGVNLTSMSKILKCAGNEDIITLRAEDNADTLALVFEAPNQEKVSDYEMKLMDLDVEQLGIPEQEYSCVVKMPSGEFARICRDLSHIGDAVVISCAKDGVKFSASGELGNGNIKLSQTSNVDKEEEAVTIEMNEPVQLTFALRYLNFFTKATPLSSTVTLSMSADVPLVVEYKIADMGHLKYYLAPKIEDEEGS
UniProt P11387: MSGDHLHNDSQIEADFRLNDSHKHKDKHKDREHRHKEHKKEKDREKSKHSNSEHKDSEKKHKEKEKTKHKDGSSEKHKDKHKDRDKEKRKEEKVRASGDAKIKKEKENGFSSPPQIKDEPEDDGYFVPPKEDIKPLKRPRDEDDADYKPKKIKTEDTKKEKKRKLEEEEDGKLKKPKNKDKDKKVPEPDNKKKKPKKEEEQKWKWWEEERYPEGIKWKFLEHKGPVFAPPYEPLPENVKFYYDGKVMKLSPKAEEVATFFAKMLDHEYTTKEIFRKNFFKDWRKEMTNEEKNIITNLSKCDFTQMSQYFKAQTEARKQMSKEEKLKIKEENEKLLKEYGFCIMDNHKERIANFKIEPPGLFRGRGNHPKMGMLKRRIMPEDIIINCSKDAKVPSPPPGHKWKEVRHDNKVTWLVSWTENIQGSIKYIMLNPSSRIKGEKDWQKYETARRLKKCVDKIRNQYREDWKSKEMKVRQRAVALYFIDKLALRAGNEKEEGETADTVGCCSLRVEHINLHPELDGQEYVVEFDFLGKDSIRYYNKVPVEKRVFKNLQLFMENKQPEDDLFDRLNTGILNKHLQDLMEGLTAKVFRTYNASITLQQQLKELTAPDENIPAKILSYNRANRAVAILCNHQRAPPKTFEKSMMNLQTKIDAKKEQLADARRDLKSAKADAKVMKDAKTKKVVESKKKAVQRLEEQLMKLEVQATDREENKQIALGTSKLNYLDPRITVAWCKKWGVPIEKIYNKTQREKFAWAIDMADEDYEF

| binding [1] | binding [2] | binding [3] | Molecule |
| --- | --- | --- | --- |
| binds | binds |  | DNA polymerase δ (POLδ or POLD1) (from UniProt P28340 1-1107) |
| binds | binds |  | PCNA (from UniProt P12004 1-261) |
| binds |  |  | TOP1 (from UniProt P11387 1-765) |
|  |  | binds | UHRF1 (protein, UniProt Q96T88 1-793) MWIQVRTMDGRQTHTVDSLSRLTKVEELRRKIQELFHVEPGLQRLFYRGKQMEDGHTLFDYEVRLNDTIQLLVRQSLVLPHSTKERDSELSDTDSGCCLGQSESDKSSTHGEAAAETDSRPADEDMWDETELGLYKVNEYVDARDTNMGAWFEAQVVRVTRKAPSRDEPCSSTSRPALEEDVIYHVKYDDYPENGVVQMNSRDVRARARTIIKWQDLEVGQVVMLNYNPDNPKERGFWYDAEISRKRETRTARELYANVVLGDDSLNDCRIIFVDEVFKIERPGEGSPMVDNPMRRKSGPSCKHCKDDVNRLCRVCACHLCGGRQDPDKQLMCDECDMAFHIYCLDPPLSSVPSEDEWYCPECRNDASEVVLAGERLRESKKKAKMASATSSSQRDWGKGMACVGRTKECTIVPSNHYGPIPGIPVGTMWRFRVQVSESGVHRPHVAGIHGRSNDGAYSLVLAGGYEDDVDHGNFFTYTGSGGRDLSGNKRTAEQSCDQKLTNTNRALALNCFAPINDQEGAEAKDWRSGKPVRVVRNVKGGKNSKYAPAEGNRYDGIYKVVKYWPEKGKSGFLVWRYLLRRDDDEPGPWTKEGKDRIKKLGLTMQYPEGYLEALANREREKENSKREEEEQQEGGFASPRTGKGKWKRKSAGGGPSRAGSPRRTSKKTKVEPYSLTAQQSSLIREDKSNAKLWNEVLASLKDRPASGSPFQLFLSKVEETFQCICCQELVFRPITTVCQHNVCKDCLDRSFRAQVFSCPACRYDLGRSYAMQVNQPLQTVLNQLFPGYGNGR |

Reference: doi:10.1101/2020.04.22.055343
